The assay concerns L1210 leukemia ip in BDF1 mice, survival T/C. Put plainly: NCI In Vivo Anticancer Drug Screen. Data for tumor model L1210 Leukemia (intraperitoneal) in B6D2F1 (BDF1) mice. To be noted: T/C endpoint: mean survival time, higher T/C = longer survival.
Where [1] appears, read: dose: 200.0 mg/kg/injection, schedule: Q01DX001 (ip), vehicle: acetone.
[2] abbreviates: dose: 400.0 mg/kg/injection, schedule: Q01DX001 (ip), vehicle: acetone.

The list shows only some results of the screen, not a fair sample: it gathers tests that were run many times, whatever their T/C, doses with no T/C, and many T/C values between a quarter and a half above the control. Further doses and runs are listed elsewhere. T/C gives the treated animals as a percentage of the vehicle group. Some doses have a count of surviving animals in place of a T/C: the source holds a T/C of zero for them, seemingly a mark for toxic or unscored doses. Some doses without a T/C left all or most animals alive at the check, yet need not have been tolerated: survival well below the control is almost never listed, so the zero probably covers shortened survival too. Counts of survivors are from the toxicity check (mostly the fifth day) where no day follows; animals may have died later. Schedule codes are those of the source, taken here to give the interval after Q, in days (D) or hours (H), and the number of doses after X. Some schedules carry Z or #; the key to these is not given. For survival time, the PubChem record calls one and a half times the control and up active, and a quarter to a half above the control has no call in these data; cut-offs in other NCI protocols can differ. Some doses were run more than once; the results are listed from low to high. Some T/C values are followed by the survivors on the day toxicity was checked, most often the fifth; without a count, all were alive then.

`c1nc(SSc2ncnc3nc[nH]c23)c2[nH]cnc2n1`: the T/C runs as follows: (dose: 0.4 mg/kg/injection, schedule: Q04DX003 (ip), vehicle: saline) 128 % of control; (dose: 0.75 mg/kg/injection, schedule: Q04DX003 (ip), vehicle: saline) 136 % of control; (dose: 1.0 mg/kg/injection, schedule: Q04DX003 (ip), vehicle: saline) 126 % of control; (dose: 1.2 mg/kg/injection, schedule: Q01DX009 (ip), vehicle: saline) 125 % of control; (dose: 1.5 mg/kg/injection, schedule: Q04DX003 (ip), vehicle: saline) 145 % of control; (dose: 3.0 mg/kg/injection, schedule: Q04DX003 (ip), vehicle: saline) 132 % of control. In addition, the T/C (dose: 4.62 mg/kg/injection, schedule: Q01DX001 (ip), vehicle: saline with Tween-80) is 126 % of control; the T/C (dose: 6.0 mg/kg/injection, schedule: Q04DX003 (ip), vehicle: saline) is 131 % of control; the T/C (dose: 6.5 mg/kg/injection, schedule: Q04DX003 (ip), vehicle: saline with Tween-80) is 130 % of control; the T/C (dose: 7.0 mg/kg/injection, schedule: Q01DX001 (ip), vehicle: saline) was 126 and 133 % of control; the T/C (dose: 8.2 mg/kg/injection, schedule: Q04DX003 (ip), vehicle: Klucel (hydroxypropylcellulose) (HPC)) is 134 % of control; the T/C (dose: 10.0 mg/kg/injection, schedule: Q01DX001 (ip), vehicle: saline) is 143 % of control. Also, the T/C runs as follows: (dose: 12.5 mg/kg/injection, schedule: Q04DX003 (ip), vehicle: Klucel (hydroxypropylcellulose) (HPC)) 126 % of control; (dose: 13.0 mg/kg/injection, schedule: Q04DX003 (ip), vehicle: saline with Tween-80) 143 % of control; (dose: 19.0 mg/kg/injection, schedule: Q01DX001 (ip), vehicle: saline) 136 % of control; (dose: 23.0 mg/kg/injection, schedule: Q01DX009 (ip), vehicle: saline) 132 % of control; (dose: 25.0 mg/kg/injection, schedule: Q04DX003 (ip), vehicle: Klucel (hydroxypropylcellulose) (HPC)) 137 % of control; (dose: 26.0 mg/kg/injection, schedule: Q04DX003 (ip), vehicle: saline with Tween-80) 148 % of control. The T/C by setting is: (dose: 29.7 mg/kg/injection, schedule: Q04DX003 (ip), vehicle: saline) 149 % of control; (dose: 30.0 mg/kg/injection, schedule: Q04DX003 (ip), vehicle: acetone) 145 % of control; (dose: 35.0 mg/kg/injection, schedule: Q01DX009 (ip), vehicle: saline) 127 % of control; (dose: 45.0 mg/kg/injection, schedule: Q04DX003 (ip), vehicle: acetone) 145 % of control; (dose: 50.0 mg/kg/injection, schedule: Q04DX003 (ip), vehicle: Klucel (hydroxypropylcellulose) (HPC)) 135 % of control; (dose: 66.0 mg/kg/injection, schedule: Q01DX001 (ip), vehicle: saline) 130 % of control. Besides, the T/C (dose: 67.5 mg/kg/injection, schedule: Q04DX003 (ip), vehicle: saline) is 149 % of control; the T/C (dose: 75.0 mg/kg/injection, schedule: Q04DX003 (ip), vehicle: Klucel (hydroxypropylcellulose) (HPC)) is 136 and 149 % of control; the T/C (dose: 100.0 mg/kg/injection, schedule: Q01DX001 (ip), vehicle: acetone) is 149 % of control; the T/C (dose: 100.0 mg/kg/injection, schedule: Q01DX001 (ip), vehicle: saline) was 142 % of control; the T/C (dose: 150.0 mg/kg/injection, schedule: Q01DX001 (ip), vehicle: saline) was 136 [5 of 6 alive] and 143 % of control; the T/C under setting [1] is 146 % of control. The T/C (dose: 200.0 mg/kg/injection, schedule: Q04DX003 (ip), vehicle: saline) was 148 % of control. The survivor count reads like this: (dose: 0.5 mg/kg/injection, schedule: Q01DX009 (ip), vehicle: saline) 6 of 6; (dose: 66.0 mg/kg/injection, schedule: Q01DX009 (ip), vehicle: saline) 6 of 6; (dose: 100.0 mg/kg/injection, schedule: Q01DX009 (ip), vehicle: saline) 5 of 6; (dose: 125.0 mg/kg/injection, schedule: Q01DX Z (ip), vehicle: saline) 5 of 6; (dose: 140.0 mg/kg/injection, schedule: Q01DX009 (ip), vehicle: saline with Tween-80) 4 of 6; (dose: 150.0 mg/kg/injection, schedule: Q04DX003 (ip), vehicle: saline) 6 of 6. Further, the survivor count by setting is: (dose: 200.0 mg/kg/injection, schedule: Q04DX003 (ip), vehicle: Klucel (hydroxypropylcellulose) (HPC)) 5 of 6; (dose: 250.0 mg/kg/injection, schedule: Q01DX Z (ip), vehicle: saline) 2 of 6; (dose: 280.0 mg/kg/injection, schedule: Q04DX003 (ip), vehicle: saline) 5 of 6; (dose: 300.0 mg/kg/injection, schedule: Q04DX003 (ip), vehicle: saline) 6 of 6; under setting [2], 4 of 6; (dose: 400.0 mg/kg/injection, schedule: Q04DX003 (ip), vehicle: Klucel (hydroxypropylcellulose) (HPC)) 5 of 6. For the same compound, the survivor count was 6 of 6 (dose: 400.0 mg/kg/injection, schedule: Q04DX003 (ip), vehicle: saline) and 0 of 6 (dose: 500.0 mg/kg/injection, schedule: Q01DX Z (ip), vehicle: saline).
With `CC(=O)Oc1ccc(Cl)cc1C=O`, the survivor count (dose: 400.0 mg/kg/injection, schedule: Q01DX001 (ip), vehicle: saline) was 0 of 6.
`O=C(Nc1ccc(NC2=NCCN2)cc1)c1cc(C(=O)Nc2ccc(NC3=NCCN3)cc2)cc([N+](=O)[O-])c1`: the survivor count is 0 of 6 (dose: 30.0 mg/kg/injection, schedule: Q01DX Z (ip), vehicle: methylcellulose (MC)); 0 of 6 (dose: 60.0 mg/kg/injection, schedule: Q01DX Z (ip), vehicle: methylcellulose (MC)); 0 of 6 (dose: 120.0 mg/kg/injection, schedule: Q01DX Z (ip), vehicle: methylcellulose (MC)).
For the compound `NC(=O)NC(CCl)NC(N)=O`, the survivor count runs as follows: (dose: 100.0 mg/kg/injection, schedule: Q01DX009 (ip), vehicle: acetone) 2 of 6; under setting [1], 0 of 6; under setting [2], 0 of 6.
On to `COCCCN=C(N)c1ccc(NC(=O)c2ccc(C(=O)Nc3ccc(C(N)=NCCCOC)cc3)c(Cl)c2)cc1`, for which the T/C reads like this: (dose: 1.88 mg/kg/injection, schedule: Q01DX Z (ip), vehicle: saline) 129 % of control; (dose: 3.75 mg/kg/injection, schedule: Q01DX Z (ip), vehicle: saline) 143 % of control [5 of 6 alive]. Moreover, the survivor count (dose: 30.0 mg/kg/injection, schedule: Q01DX Z (ip), vehicle: saline) is given as 1 of 6; the survivor count (dose: 60.0 mg/kg/injection, schedule: Q01DX Z (ip), vehicle: saline) was 0 of 6; the survivor count (dose: 120.0 mg/kg/injection, schedule: Q01DX Z (ip), vehicle: saline) is on record as 0 of 6.
For the compound `CN(C)c1ccc(/C=C\c2ccnc3ccccc23)cc1`, the survivor count is, setting by setting: (dose: 16.0 mg/kg/injection, schedule: Q01DX Z (ip), vehicle: methylcellulose (MC)) 6 of 6; (dose: 24.0 mg/kg/injection, schedule: Q01DX Z (ip), vehicle: methylcellulose (MC)) 6 of 6; (dose: 36.0 mg/kg/injection, schedule: Q01DX Z (ip), vehicle: methylcellulose (MC)) 6 of 6.
Turning to `CN1C2CC(=O)CC1C1CC2C1`, the survivor count (dose: 50.0 mg/kg/injection, schedule: Q04DX002 (ip), vehicle: Klucel (hydroxypropylcellulose) (HPC)) is recorded as 2 of 3; the survivor count (dose: 100.0 mg/kg/injection, schedule: Q04DX002 (ip), vehicle: Klucel (hydroxypropylcellulose) (HPC)) is listed as 0 of 3; the survivor count (dose: 200.0 mg/kg/injection, schedule: Q04DX002 (ip), vehicle: Klucel (hydroxypropylcellulose) (HPC)) is 0 of 3; the survivor count (dose: 400.0 mg/kg/injection, schedule: Q04DX002 (ip), vehicle: Klucel (hydroxypropylcellulose) (HPC)) is 0 of 3.

These data come from PubChem BioAssay AID248 (DTP/NCI, 2004).
